PubChem BioAssay AID743454 | Peter MacCallum Cancer Centre | 2014
The deposit covers about 18,000 reagents; below is a random part of them. Of all reagents, 450 (2.5%) were called active. 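Single biological run; no consistent viability z cut-off exists, so the class columns, not z-scores, define the calls.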 Unmarked entries are inactive.

Purpose: 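Search for knock-downs that restore vorinostat killing in resistant colon cancer cells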 (primary screen)
System: human HCT116-VR colon cancer cells, selected for vorinostat resistance
Reagent: siRNA pool against human genes, 40 nM siRNA pool
Duration: vorinostat for 24 h, read-out about 72 h after transfection
Conditions: vorinostat at 2.5 µM final
Measured: 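Cell viability by CellTiter-Fluor and caspase 3/7 activity by luminescence, each scaled to mock wells per plate, duplicates averaged, then robust z-scored over all plates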
Scale: viability robust z-score: higher = more viable cells than screen typical; caspase robust z-score: higher = more caspase 3/7 activity than screen typical
Call rule: 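a knock-down is a hit when classed RV1 or RV2 for lowered viability, or CA1 or CA2 for caspase activation; those lethal without drug were dropped; hits were retested singly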

| gene symbol | PubChem SID | viability hit class | caspase hit class | viability robust z-score | caspase robust z-score |
| --- | --- | --- | --- | --- | --- |
| DUX1 | SID135623881 | no change | no change | 0.68 | -0.72 |
| EMG1 | SID152149732 | no change | no change | -1.02 | -0.45 |
| CUL3 | SID135621906 | no change | no change | -0.02 | -0.38 |
| EPC2 | SID134320753 | no change | no change | -0.2 | 0.11 |
| FOXJ2 | SID135621755 | no change | no change | 0.38 | -0.55 |
| PBLD | SID135622630 | no change | no change | -1.94 | -0.82 |
| APLN | SID134320988 | no change | no change | -1.8 | -0.46 |
| CNOT8 | SID134322632 | no change | no change | 0.44 | -0.11 |
| HYAL2 | SID134317901 | no change (active) | CA1 (caspase activation) | -1.65 | 6.94 |
| DENND4A | SID152152535 | no change | no change | 1.16 | -0.5 |
| PIP5KL1 | SID56479217 | no change | no change | 0.34 | -0.34 |
| COIL | SID152153160 | no change | no change | -1.44 | -1.11 |
| TMF1 | SID135620928 | no change | no change | -0.55 | -1.14 |
| RHBG | SID152148628 | no change | no change | -0.56 | 0.25 |
| CAST | SID152152111 | no change | no change | 0.2 | -0.72 |
| BAG2 | SID134316270 | no change | no change | 0.52 | -0.89 |
| FAM193B | SID152147659 | no change | no change | -0.36 | 0.44 |
| TMEM214 | SID152148632 | no change | no change | 0.55 | -0.52 |
| COPS9 | SID134319540 | no change | no change | 0.01 | 0.76 |
| ZNF696 | SID152151630 | no change | no change | -1 | 0.75 |
| WDFY1 | SID152156623 | no change | no change | -0.62 | -0.54 |
| TRO | SID134322870 | no change | no change | -1.86 | -0.26 |
| ABI3BP | SID152155447 | no change | no change | -0.19 | -0.63 |

In a second layout: 8 of the entries above.
CUL3 [SID135621906]: viability hit class = no change; caspase hit class = no change; viability robust z-score = -0.02; caspase robust z-score = -0.38
EPC2 [SID134320753]: viability hit class = no change; caspase hit class = no change; viability robust z-score = -0.2; caspase robust z-score = 0.11
FOXJ2 [SID135621755]: viability hit class = no change; caspase hit class = no change; viability robust z-score = 0.38; caspase robust z-score = -0.55
PBLD [SID135622630]: viability hit class = no change; caspase hit class = no change; viability robust z-score = -1.94; caspase robust z-score = -0.82
APLN [SID134320988]: viability hit class = no change; caspase hit class = no change; viability robust z-score = -1.8; caspase robust z-score = -0.46
CNOT8 [SID134322632]: viability hit class = no change; caspase hit class = no change; viability robust z-score = 0.44; caspase robust z-score = -0.11
HYAL2 [SID134317901]: viability hit class = no change (active); caspase hit class = CA1 (caspase activation); viability robust z-score = -1.65; caspase robust z-score = 6.94
DENND4A [SID152152535]: viability hit class = no change; caspase hit class = no change; viability robust z-score = 1.16; caspase robust z-score = -0.5

More records follow:
| gene symbol | PubChem SID | viability hit class | caspase hit class | viability robust z-score | caspase robust z-score |
| --- | --- | --- | --- | --- | --- |
| MRPL28 | SID134321552 | no change | no change | 0.96 | -0.43 |
| CKAP2 | SID135623277 | no change | no change | 0.38 | -0.53 |
| CNTNAP3 | SID135622022 | no change | no change | -0.38 | -0.17 |
| APOL4 | SID152147658 | no change | no change | -0.79 | 0.02 |
| CD9 | SID134321199 | no change | no change | -0.84 | -0.88 |
| TMEM17 | SID134325489 | no change | no change | 0.18 | 1.02 |
| LCN1 | SID134313489 | no change | no change | -0.36 | -0.43 |
| USF1 | SID134309966 | no change | no change | 0.84 | -0.12 |
| YIPF4 | SID134318937 | no change | no change | -0.78 | 0.23 |
| WASL | SID152154783 | no change | no change | 0.7 | 0.68 |
| SAYSD1 | SID134324225 | no change | no change | -0.83 | 2.11 |
| RHO | SID134311152 | no change | no change | -0.29 | 0.24 |
| RIMKLB | SID152155295 | no change | no change | 1.18 | -0.92 |
| POLR3G | SID135623923 | no change | no change | -0.68 | 4.6 |
| BCAS2 | SID134316969 | no change | no change | -1.84 | -0.18 |
| SCGB3A1 | SID135622896 | no change | no change | -0.85 | -0.62 |
| GRAMD2A | SID152151240 | no change | no change | -0.13 | -0.98 |
| KLHL14 | SID135624369 | no change | no change | 0.81 | 1.09 |
| LEMD2 | SID134321840 | no change | no change | 0.45 | -1.12 |
| PACRG | SID152147191 | no change | no change | 0.08 | 1.98 |
| PTK2 | SID56478542 | no change | no change | 0.19 | -1.05 |
| OR8U1 | SID134326612 | no change | no change | -0.25 | 0.22 |
| AREL1 | SID152148569 | no change | no change | 0.25 | 0.07 |
| TRIR | SID135622708 | no change | no change | -2.27 | 1.74 |
| LAYN | SID152151319 | no change | no change | 1.4 | -0.12 |
| DPP8 | SID152149003 | no change | no change | 0.11 | 1.29 |
| NBPF14 | SID134323947 | no change | no change | -0.5 | -0.88 |
| LRBA | SID152152508 | no change | no change | 0.1 | -0.6 |
| PPL | SID134321748 | no change | no change | 1.04 | -0.66 |
| ELAC2 | SID152155414 | no change | no change | -1 | -0.98 |
| SH3BP2 | SID152147592 | no change | no change | 0.88 | 0.64 |
| ZNF85 | SID135623771 | no change | no change | 0.72 | 0.34 |
| TEP1 | SID134316653 | no change | no change | -1.21 | 2.93 |
| CREB5 | SID135621569 | no change | no change | -0.62 | 1.27 |
